Experimental data: PubChem BioAssay AID602196 (INSERM, 2012)

Aim: 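Knock-downs that protect lung cancer cells from cisplatin or sensitise them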
Cells: human A549 lung cancer cells
Reagents: siRNA pair against human genes
Duration: 48 h transfection before cisplatin; time from cisplatin to read-out not stated
Challenge: cisplatin at a dose killing half of control-siRNA cells; exact dose and duration not given
Measurement: 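Shift in cisplatin death relative to control siRNA, from -50 (all cells die) to +50 (no cells die); siRNAs harmful on their own scored 0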
Reading the numbers: two-siRNA summed score (-2 to +2): higher = both siRNAs protect from cisplatin killing; -2 means both sensitise; mean protection from cisplatin (shift in death) and protection from cisplatin (shift in death), siRNA C and protection from cisplatin (shift in death), siRNA D: higher = protection from cisplatin killing
Hit rule: 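Each siRNA scores 0 if harmful alone by LDH or WST-1, otherwise +1 if it reduces and -1 if it increases cisplatin killing; a gene is active when both siRNAs agree (sum +2 or -2)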
Meaning of the calls: active = both siRNAs shift cisplatin killing the same way; inactive = no consistent shift, or siRNA harmful alone
The whole screen tested about 23,000 reagents; this is a random part of them. 455 of them (2%) count as active. 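Active includes both protection and sensitisation; some change values fall well beyond the stated -50 to +50 range.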 Unmarked entries are inactive. The record does not give: the amount of reagent.

target	two-siRNA summed score (-2 to +2)	mean protection from cisplatin (shift in death) (%)	protection from cisplatin (shift in death), siRNA C (%)	protection from cisplatin (shift in death), siRNA D (%)
TCP10L3 (t-complex 10 like 3 (pseudogene))	0	22.6	30.2	15
TAF6 (TATA-box binding protein associated factor 6)	0	-4.3	-7.1	-1.4
WDR7 (WD repeat domain 7)	0	4	1.4	6.6
MICOS13	-1	-18.4	-15.9	-20.9
DHX30 (DExH-box helicase 30)	-1	-1.1	-20.3	18.1
PXDC1 (PX domain containing 1)	0	7	0.1	13.9
DDB2 (damage specific DNA binding protein 2)	0	7.7	5.4	9.9
TMEM14C (transmembrane protein 14C)	0	11.9	21.5	2.2
SMURF2 (SMAD specific E3 ubiquitin protein ligase 2)	0	4	-4.1	12.1
LOC440703	1	15.5	19.7	11.4
GRM6 (glutamate metabotropic receptor 6)	0	1.5	14.8	-11.8
B3GNT3	0	5.2	4.4	6
FAM76A (family with sequence similarity 76 member A)	1	9.4	12.8	5.9
LRRC75B (leucine rich repeat containing 75B)	0	2.7	1.9	3.6
GNG2 (G protein subunit gamma 2)	0	-3.5	-13.7	6.7
MORN1 (MORN repeat containing 1)	0	5.1	4.4	5.9
CEP131 (centrosomal protein 131)	0	-2.6	-12.2	7
OR6N1 (olfactory receptor family 6 subfamily N member 1)	1	8.4	4.4	12.4
RECQL4 (RecQ like helicase 4)	-1	-1.9	8.5	-12.4
LOC138972	0	-3.8	-0.2	-7.4
RABGAP1L (RAB GTPase activating protein 1 like)	0	0.2	-3.7	4.1
MOV10L1 (Mov10 like RNA helicase 1)	0	-0.3	-5.1	4.5
KLRC3 (killer cell lectin like receptor C3)	0	9.2	20.6	-2.2
PTGIS (prostaglandin I2 synthase)	0	-1.1	-1.7	-0.6
LOC442407	0	3.2	-10	16.4
LOC389832	0	-1.3	-1.4	-1.1
PLAGL1 (PLAG1 like zinc finger 1)	0	4.9	5.8	4
LOC390865	0	-1.6	2.1	-5.3
YKT6P1 (YKT6 pseudogene 1)	1	11.1	23.1	-1
LOC440866	-1	-6.5	0.9	-13.9
NKAPL (NFKB activating protein like)	0	-1.7	-5.2	1.8
LRP2 (LDL receptor related protein 2)	0	9.7	12.9	6.4
CAMLG (calcium modulating ligand)	0	1.6	0.3	3
FGFR3 (fibroblast growth factor receptor 3)	1	15.8	24.1	7.5
LINC00857 (long independently transcribed non-coding RNA 857)	0	7.8	5.2	10.4
RBM17 (RNA binding motif protein 17)	0	1.5	-3.7	6.7
LOC390421	0	10.8	8.3	13.3
RPL9 (ribosomal protein L9)	0	26.3	12.2	40.4
KRTAP23-1 (keratin associated protein 23-1)	1	13.2	15.7	10.7
USH1C (USH1 protein network component harmonin)	0	-5.1	-0.8	-9.4
S100G (S100 calcium binding protein G)	1	11.4	14.6	8.3
MAGEA3 (MAGE family member A3)	0	-5.2	-2.8	-7.5
ELAVL4 (ELAV like RNA binding protein 4)	0	-3	-4	-2
LOC128102	0	-0.3	8.8	-9.5
LOC401268	0	9.2	14.4	4.1
ERMARD (ER membrane associated RNA degradation)	0	13.1	17.9	8.2
TAB1 (TGF-beta activated kinase 1 (MAP3K7) binding protein 1)	2 (active)	21.5	20.4	22.7
EXD2 (exonuclease 3'-5' domain containing 2)	-1	-0.6	10.1	-11.2
PKD1L3	0	3.6	7.8	-0.7
TRIB3 (tribbles pseudokinase 3)	0	2	15.3	-11.4
PROC (protein C, inactivator of coagulation factors Va and VIIIa)	0	-13.1	-18.6	-7.5
PPY (pancreatic polypeptide)	-1	-10.6	-32.4	11.2
MPL (MPL proto-oncogene, thrombopoietin receptor)	-1	-9.6	-16.8	-2.3
CABP5 (calcium binding protein 5)	0	3.4	-4.7	11.6
ZFAND5 (zinc finger AN1-type containing 5)	1	14.9	14.2	15.6
BAG1 (BAG cochaperone 1)	-1	-8.7	-5.1	-12.4
LOC283970	0	16.9	31.6	2.2

Called active, among the entries above:
target	two-siRNA summed score (-2 to +2)	mean protection from cisplatin (shift in death) (%)	protection from cisplatin (shift in death), siRNA C (%)	protection from cisplatin (shift in death), siRNA D (%)
TAB1 (TGF-beta activated kinase 1 (MAP3K7) binding protein 1)	2 (active)	21.5	20.4	22.7
